The list shows a part of the results.
What was measured:
Assay in all cases: glycan array binding signal (z-score within array); higher = stronger binding
Conditions in all cases: glycan notation: IUPAC condensed, linker removed
[1] = target: GlcNAc(b1-2)Gal(b1-3)GalNAc
Outline: (§1)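 The binding signal is a Z-score computed within each array. Data were drawn from 3228 arrays in the Consortium for Functional Glycomics database, restricted to those with a known protein sequence. Scores were averaged over arrays of the same protein sequence at different concentrations or buffers, and over linkers, and negative values can be taken as non-binding.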

[2] = target: GlcNAc(b1-2)Man(a1-3)[GlcNAc(b1-2)Man(a1-6)]Man(b1-4)GlcNAc(b1-4)GlcNAc
Outline: as §1

[3] = target: GlcNAc(b1-2)Man(a1-3)[GlcNAc(b1-2)Man(a1-6)]Man(b1-4)GlcNAc(b1-4)[Fuc(a1-6)]GlcNAc
Outline: as §1

[4] = target: GlcNAc(b1-2)Man(a1-3)[GlcNAc(b1-4)][GlcNAc(b1-2)Man(a1-6)]Man(b1-4)GlcNAc(b1-4)GlcNAc
Outline: as §1

[5] = target: GlcNAc(b1-2)Man(a1-3)[GlcNAc(b1-4)][GlcNAc(b1-2)Man(a1-6)]Man(b1-4)GlcNAc(b1-4)[Fuc(a1-6)]GlcNAc
Outline: as §1

[6] = target: GlcNAc(b1-2)[GlcNAc(b1-4)]Man(a1-3)[GlcNAc(b1-2)Man(a1-6)]Man(b1-4)GlcNAc(b1-4)GlcNAc
Outline: as §1

[7] = target: GlcNAc(b1-2)[GlcNAc(b1-4)]Man(a1-3)[GlcNAc(b1-4)][GlcNAc(b1-2)Man(a1-6)]Man(b1-4)GlcNAc(b1-4)GlcNAc
Outline: as §1

[8] = target: GlcNAc(b1-2)[GlcNAc(b1-4)]Man(a1-3)[GlcNAc(b1-4)][GlcNAc(b1-2)[GlcNAc(b1-6)]Man(a1-6)]Man(b1-4)GlcNAc(b1-4)GlcNAc
Outline: as §1

[9] = target: GlcNAc(b1-2)[GlcNAc(b1-4)]Man(a1-3)[GlcNAc(b1-4)][GlcNAc(b1-2)[GlcNAc(b1-6)]Man(a1-6)]Man(b1-4)GlcNAc(b1-4)[Fuc(a1-6)]GlcNAc
Outline: as §1

[10] = target: GlcNAc(b1-2)[GlcNAc(b1-6)]Man(a1-6)[GlcNAc(b1-2)Man(a1-3)]Man(b1-4)GlcNAc(b1-4)GlcNAc
Outline: as §1

[11] = target: GlcNAc(b1-2)[GlcNAc(b1-6)]Man(a1-6)[GlcNAc(b1-2)Man(a1-3)]Man(b1-4)GlcNAc(b1-4)[Fuc(a1-6)]GlcNAc
Outline: as §1

[12] = target: GlcNAc(b1-2)[GlcNAc(b1-6)]Man(a1-6)[GlcNAc(b1-4)][GlcNAc(b1-2)Man(a1-3)]Man(b1-4)GlcNAc(b1-4)GlcNAc
Outline: as §1

GlcNAc(b1-3)Fuc = target: GlcNAc(b1-3)Fuc
Outline: as §1

GlcNAc(b1-3)Gal = target: GlcNAc(b1-3)Gal
Outline: as §1

[13] = target: GlcNAc(b1-3)Gal(b1-3)GalNAc
Outline: as §1

GlcNAc(b1-3)Gal(b1-4)Glc = target: GlcNAc(b1-3)Gal(b1-4)Glc
Outline: as §1

[14] = target: GlcNAc(b1-3)Gal(b1-4)GlcNAc
Outline: as §1

[15] = target: GlcNAc(b1-3)Gal(b1-4)GlcNAc(b1-2)Man(a1-3)[GlcNAc(b1-3)Gal(b1-4)GlcNAc(b1-2)Man(a1-6)]Man(b1-4)GlcNAc(b1-4)GlcNAc
Outline: as §1

[16] = target: GlcNAc(b1-3)Gal(b1-4)GlcNAc(b1-2)Man(a1-3)[GlcNAc(b1-3)Gal(b1-4)GlcNAc(b1-2)Man(a1-6)]Man(b1-4)GlcNAc(b1-4)[Fuc(a1-6)]GlcNAc
Outline: as §1

[17] = target: GlcNAc(b1-3)Gal(b1-4)GlcNAc(b1-2)[GlcNAc(b1-3)Gal(b1-4)GlcNAc(b1-6)]Man(a1-6)[GlcNAc(b1-3)Gal(b1-4)GlcNAc(b1-2)Man(a1-3)]Man(b1-4)GlcNAc(b1-4)GlcNAc
Outline: as §1

[18] = target: GlcNAc(b1-3)Gal(b1-4)GlcNAc(b1-3)Gal(b1-4)GlcNAc
Outline: as §1

[19] = target: GlcNAc(b1-3)Gal(b1-4)GlcNAc(b1-3)Gal(b1-4)GlcNAc(b1-2)Man(a1-3)[GlcNAc(b1-3)Gal(b1-4)GlcNAc(b1-3)Gal(b1-4)GlcNAc(b1-2)Man(a1-6)]Man(b1-4)GlcNAc(b1-4)GlcNAc
Outline: as §1

[20] = target: GlcNAc(b1-3)Gal(b1-4)GlcNAc(b1-3)Gal(b1-4)GlcNAc(b1-2)Man(a1-3)[GlcNAc(b1-3)Gal(b1-4)GlcNAc(b1-3)Gal(b1-4)GlcNAc(b1-2)Man(a1-6)]Man(b1-4)GlcNAc(b1-4)[Fuc(a1-6)]GlcNAc
Outline: as §1

[21] = target: GlcNAc(b1-3)Gal(b1-4)GlcNAc(b1-3)Gal(b1-4)GlcNAc(b1-2)[GlcNAc(b1-3)Gal(b1-4)GlcNAc(b1-3)Gal(b1-4)GlcNAc(b1-6)]Man(a1-6)[GlcNAc(b1-3)Gal(b1-4)GlcNAc(b1-3)Gal(b1-4)GlcNAc(b1-2)Man(a1-3)]Man(b1-4)GlcNAc(b1-4)[Fuc(a1-6)]GlcNAc
Outline: as §1

[22] = target: GlcNAc(b1-3)Gal(b1-4)GlcNAc(b1-3)Gal(b1-4)GlcNAc(b1-3)Gal(b1-4)GlcNAc(b1-2)Man(a1-3)[GlcNAc(b1-3)Gal(b1-4)GlcNAc(b1-3)Gal(b1-4)GlcNAc(b1-3)Gal(b1-4)GlcNAc(b1-2)Man(a1-6)]Man(b1-4)GlcNAc(b1-4)GlcNAc
Outline: as §1

[23] = target: GlcNAc(b1-3)Gal(b1-4)GlcNAc(b1-3)Gal(b1-4)GlcNAc(b1-3)Gal(b1-4)GlcNAc(b1-2)Man(a1-3)[GlcNAc(b1-3)Gal(b1-4)GlcNAc(b1-3)Gal(b1-4)GlcNAc(b1-3)Gal(b1-4)GlcNAc(b1-2)Man(a1-6)]Man(b1-4)GlcNAc(b1-4)[Fuc(a1-6)]GlcNAc
Outline: as §1

[24] = target: GlcNAc(b1-3)Gal(b1-4)GlcNAc(b1-3)Gal(b1-4)GlcNAc(b1-3)Gal(b1-4)GlcNAc(b1-2)[GlcNAc(b1-3)Gal(b1-4)GlcNAc(b1-3)Gal(b1-4)GlcNAc(b1-3)Gal(b1-4)GlcNAc(b1-6)]Man(a1-6)[GlcNAc(b1-3)Gal(b1-4)GlcNAc(b1-3)Gal(b1-4)GlcNAc(b1-3)Gal(b1-4)GlcNAc(b1-2)Man(a1-3)]Man(b1-4)GlcNAc(b1-4)[Fuc(a1-6)]GlcNAc
Outline: as §1

[25] = target: GlcNAc(b1-3)Gal(b1-4)GlcNAc(b1-3)Gal(b1-4)GlcNAc(b1-3)Gal(b1-4)GlcNAc(b1-3)Gal(b1-4)GlcNAc(b1-2)Man(a1-3)[GlcNAc(b1-3)Gal(b1-4)GlcNAc(b1-3)Gal(b1-4)GlcNAc(b1-3)Gal(b1-4)GlcNAc(b1-3)Gal(b1-4)GlcNAc(b1-2)Man(a1-6)]Man(b1-4)GlcNAc(b1-4)GlcNAc
Outline: as §1

[26] = target: GlcNAc(b1-3)Gal(b1-4)GlcNAc(b1-3)Gal(b1-4)GlcNAc(b1-3)Gal(b1-4)GlcNAc(b1-3)Gal(b1-4)GlcNAc(b1-2)Man(a1-3)[GlcNAc(b1-3)Gal(b1-4)GlcNAc(b1-3)Gal(b1-4)GlcNAc(b1-3)Gal(b1-4)GlcNAc(b1-3)Gal(b1-4)GlcNAc(b1-2)Man(a1-6)]Man(b1-4)GlcNAc(b1-4)[Fuc(a1-6)]GlcNAc
Outline: as §1

[27] = target: GlcNAc(b1-3)Gal(b1-4)GlcNAc(b1-3)Gal(b1-4)GlcNAc(b1-3)Gal(b1-4)GlcNAc(b1-3)Gal(b1-4)GlcNAc(b1-2)[GlcNAc(b1-3)Gal(b1-4)GlcNAc(b1-3)Gal(b1-4)GlcNAc(b1-3)Gal(b1-4)GlcNAc(b1-3)Gal(b1-4)GlcNAc(b1-6)]Man(a1-6)[GlcNAc(b1-3)Gal(b1-4)GlcNAc(b1-3)Gal(b1-4)GlcNAc(b1-3)Gal(b1-4)GlcNAc(b1-3)Gal(b1-4)GlcNAc(b1-2)Man(a1-3)]Man(b1-4)GlcNAc(b1-4)[Fuc(a1-6)]GlcNAc
Outline: as §1

B1: Protein L(A-C2) (Finegoldia magna), Q51912 (protein)
chain: ADEPIDLEKLEEKRDKENVGNLPKFDNEVKDGSENPMAKYPDFDDEASTRFETENNEFEEKKVVSDNFFDQSEHPFVENKEETPETPETDSEEEVTIKANLIFANGSTQTAEFKGTFEKATSEAYAYADTLKKDNGEYTVDVADKGYTLNIKFAGKEKTPEEPKEEVTIKANLIYADGKTQTAEFKGTFEEATAEAYRYADALKKDNGEYTVDVADKGYTLNIKFAGKEKTPEEPKEEVTIKANLIYADGKTQTAEFKGTFEEATAEAYRYADLLAKENGKYTVDVADKGYTLNIKFAGKEKTPEEPKEEVTIKANLIYADGKTQTAEFKGTFAEATAEAYRYADLLAKENGKYTADLEDGGYTINIRFAGKKVDEKPEEKEQVTIKENIYFEDGTVQTATFKGTFAEATAEAYRYADLLSKEHGKYTADLEDGGYTINIRFAGKEEPEETPEKPEVQDGYASYEEAEAAAKEALKNDDVNKSYTIRQGADGRYYYVLSPVEAEEEKPEAQNGYATYEEAEAAAKKALENDPINKSYSIRQGADGRYYYVLSPVEAE
glycan array binding signal (z-score) [1]: -0.741 | glycan array binding signal (z-score) [2]: -0.516 | glycan array binding signal (z-score) [3]: 2.85 | glycan array binding signal (z-score) [4]: 0.244 | glycan array binding signal (z-score) [5]: -0.153 | glycan array binding signal (z-score) [6]: 0.686 | glycan array binding signal (z-score) [7]: -0.355 | glycan array binding signal (z-score) [8]: 0.025 | glycan array binding signal (z-score) [9]: -0.478 | glycan array binding signal (z-score) [10]: -0.785 | glycan array binding signal (z-score) [11]: -0.081 | glycan array binding signal (z-score) [12]: -0.53 | glycan array binding signal (z-score) (GlcNAc(b1-3)Fuc): -0.812 | glycan array binding signal (z-score) (GlcNAc(b1-3)Gal): -0.986 | glycan array binding signal (z-score) [13]: 0.092 | glycan array binding signal (z-score) (GlcNAc(b1-3)Gal(b1-4)Glc): -0.921 | glycan array binding signal (z-score) [14]: -0.623 | glycan array binding signal (z-score) [15]: -0.191 | glycan array binding signal (z-score) [16]: 0.001 | glycan array binding signal (z-score) [17]: 0.107 | glycan array binding signal (z-score) [18]: -0.561 | glycan array binding signal (z-score) [19]: 1.91 | glycan array binding signal (z-score) [20]: 2.42 | glycan array binding signal (z-score) [21]: 0.33 | glycan array binding signal (z-score) [22]: 0.676 | glycan array binding signal (z-score) [23]: 0.203 | glycan array binding signal (z-score) [24]: 0.83 | glycan array binding signal (z-score) [25]: 0.576 | glycan array binding signal (z-score) [26]: 1.02 | glycan array binding signal (z-score) [27]: 1.26

Source: the supplement of paper PMC8728848
